Reference: patent publication US20140286976A1 (ARGEN X B V, published 2014)
No constants are given. Whether binding was seen depends on the method and setting. Some binding calls cover weakened binding; strength is not graded here.

By UniProt entry, the sequences of proteins in these tests, tags left out. Residues count along the entry.
UniProt P14210, residues 32-728: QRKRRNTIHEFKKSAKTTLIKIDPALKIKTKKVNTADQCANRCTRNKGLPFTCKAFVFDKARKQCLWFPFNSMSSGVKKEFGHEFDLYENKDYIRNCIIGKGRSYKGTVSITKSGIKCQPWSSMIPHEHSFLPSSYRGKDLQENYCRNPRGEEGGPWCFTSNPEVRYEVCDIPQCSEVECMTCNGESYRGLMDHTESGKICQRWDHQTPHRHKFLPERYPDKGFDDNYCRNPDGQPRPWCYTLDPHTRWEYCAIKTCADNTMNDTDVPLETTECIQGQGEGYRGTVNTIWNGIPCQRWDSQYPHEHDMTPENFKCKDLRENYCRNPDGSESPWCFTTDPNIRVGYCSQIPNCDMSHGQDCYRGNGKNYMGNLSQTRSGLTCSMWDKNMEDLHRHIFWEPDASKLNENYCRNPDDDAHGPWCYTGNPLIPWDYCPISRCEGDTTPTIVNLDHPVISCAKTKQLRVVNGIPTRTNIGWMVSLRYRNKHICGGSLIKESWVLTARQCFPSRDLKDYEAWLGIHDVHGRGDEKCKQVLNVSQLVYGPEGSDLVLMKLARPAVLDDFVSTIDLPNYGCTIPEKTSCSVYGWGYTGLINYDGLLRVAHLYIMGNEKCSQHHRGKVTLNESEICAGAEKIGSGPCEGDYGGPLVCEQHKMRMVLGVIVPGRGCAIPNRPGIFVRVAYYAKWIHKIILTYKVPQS

Assays:
[1] = target: Human c-Met ECD (Flag and strep tag) (human) (UniProt P08581); assay: SPR; HGF coupled on CM-5 chip, c-Met protein at 10 µg/ml injected
[2] = target: LI10 (aa608-909) (llama/human chimera) (UniProt P08581); assay: SPR; HGF coupled on CM-5 chip, c-Met chimera at 10 µg/ml injected
[3] = target: LP6 (aa497-909) (llama/human chimera) (UniProt P08581); assay: as above
[4] = target: LI11 (aa634-909) (llama/human chimera) (UniProt P08581); assay: as above
[5] = target: LI8 (aa540-909) (llama/human chimera) (UniProt P08581); assay: as above
[6] = target: LI9 (aa572-909) (llama/human chimera) (UniProt P08581); assay: as above
[7] = target: LS2 (aa1-199) (llama/human chimera) (UniProt P08581); assay: as above
[8] = target: LS4 (aa1-348) (llama/human chimera) (UniProt P08581); assay: as above
[9] = target: LS1 (aa1-98) (llama/human chimera) (UniProt P08581); assay: as above
[10] = target: LS5 (aa1-448) (llama/human chimera) (UniProt P08581); assay: as above
[11] = target: LP7* (aa523-909) (llama/human chimera) (UniProt P08581); assay: as above
[12] = target: LS3 (aa1-287) (llama/human chimera) (UniProt P08581); assay: as above

Measured: binding

HGF (from UniProt P14210 32-728) (ligand)
binds: [1] | [2] | [3] | [4] | [5] | [6] | [7] | [8] | [9] | [10] | [11] | [12]
